# From EP4640207A1, “AQUEOUS COMPOSITION AND EXTERNAL PREPARATION FOR SKIN” (Resonac Corporation, priority 2022, dated 2024)
# The name of at least one read-out is uncertain.
# Tests used:
# TRPV4 = assay: Immunohistochemical staining of skin model sections, brightness analysis, TRPV4; assay type: cell-based; conditions: skin model after TEWL measurement; relative to 0.5% by mass HD aqueous solution without test compound = 1.00
# CLDN1 = assay: Immunohistochemical staining of skin model sections, brightness analysis, CLDN1; assay type: cell-based; conditions: skin model after TEWL measurement; relative to 0.5% by mass HD aqueous solution without test compound = 1.00
substance,measurement,setting,value
D-α-tocopheryl glucoside [α-TPG/HD],Brightness (relative value) TRPV4,TRPV4,1.97
same,Brightness (relative value) CLDN1,CLDN1,1.55
